Measured values taken from paper PMC4013092.
No constants are given. Whether binding was seen depends on the method and setting. Sequences can lack the tags named with a protein.

Columns and labels:
[1] = molecular target: γH2A peptide (H2A.1 residues 120–132, phosphorylated on Ser-129) (S. pombe) (UniProt P04909); experiment: condition: 5–10 µg of Mdb1 with 2 µg of peptide in 200 µl; pull-down; biotinylated peptide (2 µg) incubated with 5–10 µg purified Mdb1 in 200 µl of 50 mM Tris-HCl pH 7.5, 100 mM NaCl, 0.05% NP-40 at 4°C for 2 hours; pulled down with streptavidin Dynabeads M-280; SDS-PAGE and Coomassie staining; both purified
[2] = molecular target: H2A peptide (H2A.1 residues 120–132, unmodified) (S. pombe) (UniProt P04909); experiment: as above

B1: Mdb1-S392A (His6-tagged recombinant Mdb1) (protein, UniProt O14079 1-624)
chain: MEIQFGNQRCRMVNSGGFLATDGSHLKEMETDDVLVEFLNIEHQLFIRNIRAIVKIADTTVLPSASDKKLLYYVFDETRVRINDTPVIFSKLEEDNANVNEGSKMGVMTVPNTPQKPNLQQQKFEAINANEDQIDYSSNLEQNYNSLIRQGSDQVIPLSRFASEKSALELEKELFSERIPESQSAAEPVLKVENSENDLDEKLVLDGQHVEGDHSSDTEEEVVSEDQKQLNKTDDESTFIESHQIYIQGETKSPSSVSQSLSGDPSLKPAEVFDRKQSAEINSPIEKDVNPQQNISDSSIKNNSIHSDEVNPEVRPDLTPSNENEESKRSAPEIALKEKESTSQDESNREAEEAPISTNYSFPSSSLEDQPDKNVQSSAVENKNKHTNLVTASFNLTKPMKSFIRRNGLRVQESVTDETDFVILGSPPLRRTHKFLLATSLGIPLVSSQYLTDCIKSGKVLDFRSYKYKDEEAEAKWGFRLDDIHRRTCFNGKRLYITKAIRDSMVGDSIHGLYSILETSGAEIVGDIKRAQEKDTIILAQPDNDQEGRNMSATGLNVYKIELVALSILRDRIDFDEFLIDYDADSPTKVIGKRNVSKASRTGQGRKRSSRSSWNKPSAKEQRT
**Q.** B1 was tested. Which binding [1] did it give?
**A.** no binding

**Q.** And the binding [2]?
**A.** no binding

B2: Mdb1-K434M (His6-tagged recombinant Mdb1) (protein, UniProt O14079 1-624)
chain: MEIQFGNQRCRMVNSGGFLATDGSHLKEMETDDVLVEFLNIEHQLFIRNIRAIVKIADTTVLPSASDKKLLYYVFDETRVRINDTPVIFSKLEEDNANVNEGSKMGVMTVPNTPQKPNLQQQKFEAINANEDQIDYSSNLEQNYNSLIRQGSDQVIPLSRFASEKSALELEKELFSERIPESQSAAEPVLKVENSENDLDEKLVLDGQHVEGDHSSDTEEEVVSEDQKQLNKTDDESTFIESHQIYIQGETKSPSSVSQSLSGDPSLKPAEVFDRKQSAEINSPIEKDVNPQQNISDSSIKNNSIHSDEVNPEVRPDLTPSNENEESKRSAPEIALKEKESTSQDESNREAEEAPISTNYSFPSSSLEDQPDKNVQSSAVENKNKHTNLVTSSFNLTKPMKSFIRRNGLRVQESVTDETDFVILGSPPLRRTHMFLLATSLGIPLVSSQYLTDCIKSGKVLDFRSYKYKDEEAEAKWGFRLDDIHRRTCFNGKRLYITKAIRDSMVGDSIHGLYSILETSGAEIVGDIKRAQEKDTIILAQPDNDQEGRNMSATGLNVYKIELVALSILRDRIDFDEFLIDYDADSPTKVIGKRNVSKASRTGQGRKRSSRSSWNKPSAKEQRT
**Q.** Which binding [1] does the source give for B2 here?
**A.** no binding

**Q.** What about the binding [2] of the same binder?
**A.** no binding
